# Data as given in publication PMC10030765.
# Protein sequences, listed by entry. Tags and fused reporters are not part of them. Residues count along the entry.
# UniProt Q9R1E9, residues 25-347: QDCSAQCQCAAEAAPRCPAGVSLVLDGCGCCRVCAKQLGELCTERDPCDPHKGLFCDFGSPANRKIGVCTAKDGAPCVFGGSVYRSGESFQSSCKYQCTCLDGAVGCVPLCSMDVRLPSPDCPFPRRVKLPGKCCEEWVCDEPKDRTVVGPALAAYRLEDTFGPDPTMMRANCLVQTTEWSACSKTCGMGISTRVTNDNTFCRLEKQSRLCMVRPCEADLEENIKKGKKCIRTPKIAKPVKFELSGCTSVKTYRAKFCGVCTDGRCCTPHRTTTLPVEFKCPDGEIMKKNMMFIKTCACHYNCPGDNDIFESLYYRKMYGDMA
# Results are given in words; binding and its absence hold for the method and conditions named. Binding seen in cells or lysates may run through a third protein. Some results given as binding are weak or reduced against the parent protein; the word gives no strength. For some assays here: Tags and fused reporters may be left off the sequences shown.
# B1: murine Slit2, endogenous in fibrotic mouse liver (protein, UniProt Q9R1B9 26-1521)
# chain: QACPAQCSCSGSTVDCHGLALRSVPRNIPRNTERLDLNGNNITRITKIDFAGLRHLRVLQLMENRISTIERGAFQDLKELERLRLNRNNLQLFPELLFLGTAKLYRLDLSENQIQAIPRKAFRGAVDIKNLQLDYNQISCIEDGAFRALRDLEVLTLNNNNITRLSVASFNHMPKLRTFRLHSNNLYCDCHLAWLSDWLRQRPRVGLYTQCMGPSHLRGHNVAEVQKREFVCSGHQSFMAPSCSVLHCPAACTCSNNIVDCRGKGLTEIPTNLPETITEIRLEQNSIRVIPPGAFSPYKKLRRLDLSNNQISELAPDAFQGLRSLNSLVLYGNKITELPKSLFEGLFSLQLLLLNANKINCLRVDAFQDLHNLNLLSLYDNKLQTVAKGTFSALRAIQTMHLAQNPFICDCHLKWLADYLHTNPIETSGARCTSPRRLANKRIGQIKSKKFRCSGTEDYRSKLSGDCFADLACPEKCRCEGTTVDCSNQRLNKIPDHIPQYTAELRLNNNEFTVLEATGIFKKLPQLRKINFSNNKITDIEEGAFEGASGVNEILLTSNRLENVQHKMFKGLESLKTLMLRSNRISCVGNDSFIGLGSVRLLSLYDNQITTVAPGAFDSLHSLSTLNLLANPFNCNCHLAWLGEWLRRKRIVTGNPRCQKPYFLKEIPIQDVAIQDFTCDDGNDDNSCSPLSRCPSECTCLDTVVRCSNKGLKVLPKGIPKDVTELYLDGNQFTLVPKELSNYKHLTLIDLSNNRISTLSNQSFSNMTQLLTLILSYNRLRCIPPRTFDGLKSLRLLSLHGNDISVVPEGAFNDLSALSHLAIGANPLYCDCNMQWLSDWVKSEYKEPGIARCAGPGEMADKLLLTTPSKKFTCQGPVDITIQAKCNPCLSNPCKNDGTCNNDPVDFYRCTCPYGFKGQDCDVPIHACISNPCKHGGTCHLKEGENAGFWCTCADGFEGENCEVNIDDCEDNDCENNSTCVDGINNYTCLCPPEYTGELCEEKLDFCAQDLNPCQHDSKCILTPKGFKCDCTPGYIGEHCDIDFDDCQDNKCKNGAHCTDAVNGYTCVCPEGYSGLFCEFSPPMVLPRTSPCDNFDCQNGAQCIIRINEPICQCLPGYLGEKCEKLVSVNFVNKESYLQIPSAKVRPQTNITLQIATDEDSGILLYKGDKDHIAVELYRGRVRASYDTGSHPASAIYSVETINDGNFHIVELLTLDSSLSLSVDGGSPKVITNLSKQSTLNFDSPLYVGGMPGKNNVASLRQAPGQNGTSFHGCIRNLYINSELQDFRKMPMQTGILPGCEPCHKKVCAHGMCQPSSQSGFTCECEEGWMGPLCDQRTNDPCLGNKCVHGTCLPINAFSYSCKCLEGHGGVLCDEEEDLFNPCQMIKCKHGKCRLSGVGQPYCECNSGFTGDSCDREISCRGERIRDYYQKQQGYAACQTTKKVSRLECRGGCAGGQCCGPLRSKRRKYSFECTDGSSFVDEVEKVVKCGCARCAS
# B2: full-length human SLIT2 with MYC epitope (protein, UniProt O94813 31-1529)
# chain: QCSCSGSTVDCHGLALRSVPRNIPRNTERLDLNGNNITRITKTDFAGLRHLRVLQLMENKISTIERGAFQDLKELERLRLNRNHLQLFPELLFLGTAKLYRLDLSENQIQAIPRKAFRGAVDIKNLQLDYNQISCIEDGAFRALRDLEVLTLNNNNITRLSVASFNHMPKLRTFRLHSNNLYCDCHLAWLSDWLRQRPRVGLYTQCMGPSHLRGHNVAEVQKREFVCSGHQSFMAPSCSVLHCPAACTCSNNIVDCRGKGLTEIPTNLPETITEIRLEQNTIKVIPPGAFSPYKKLRRIDLSNNQISELAPDAFQGLRSLNSLVLYGNKITELPKSLFEGLFSLQLLLLNANKINCLRVDAFQDLHNLNLLSLYDNKLQTIAKGTFSPLRAIQTMHLAQNPFICDCHLKWLADYLHTNPIETSGARCTSPRRLANKRIGQIKSKKFRCSAKEQYFIPGTEDYRSKLSGDCFADLACPEKCRCEGTTVDCSNQKLNKIPEHIPQYTAELRLNNNEFTVLEATGIFKKLPQLRKINFSNNKITDIEEGAFEGASGVNEILLTSNRLENVQHKMFKGLESLKTLMLRSNRITCVGNDSFIGLSSVRLLSLYDNQITTVAPGAFDTLHSLSTLNLLANPFNCNCYLAWLGEWLRKKRIVTGNPRCQKPYFLKEIPIQDVAIQDFTCDDGNDDNSCSPLSRCPTECTCLDTVVRCSNKGLKVLPKGIPRDVTELYLDGNQFTLVPKELSNYKHLTLIDLSNNRISTLSNQSFSNMTQLLTLILSYNRLRCIPPRTFDGLKSLRLLSLHGNDISVVPEGAFNDLSALSHLAIGANPLYCDCNMQWLSDWVKSEYKEPGIARCAGPGEMADKLLLTTPSKKFTCQGPVDVNILAKCNPCLSNPCKNDGTCNSDPVDFYRCTCPYGFKGQDCDVPIHACISNPCKHGGTCHLKEGEEDGFWCICADGFEGENCEVNVDDCEDNDCENNSTCVDGINNYTCLCPPEYTGELCEEKLDFCAQDLNPCQHDSKCILTPKGFKCDCTPGYVGEHCDIDFDDCQDNKCKNGAHCTDAVNGYTCICPEGYSGLFCEFSPPMVLPRTSPCDNFDCQNGAQCIVRINEPICQCLPGYQGEKCEKLVSVNFINKESYLQIPSAKVRPQTNITLQIATDEDSGILLYKGDKDHIAVELYRGRVRASYDTGSHPASAIYSVETINDGNFHIVELLALDQSLSLSVDGGNPKIITNLSKQSTLNFDSPLYVGGMPGKSNVASLRQAPGQNGTSFHGCIRNLYINSELQDFQKVPMQTGILPGCEPCHKKVCAHGTCQPSSQAGFTCECQEGWMGPLCDQRTNDPCLGNKCVHGTCLPINAFSYSCKCLEGHGGVLCDEEEDLFNPCQAIKCKHGKCRLSGLGQPYCECSSGYTGDSCDREISCRGERIRDYYQKQQGYAACQTTKKVSRLECRGGCAGGQCCGPLRSKRRKYSFECTDGSSFVDEVEKVVKCGCTRCVS
# Assays:
# [1] = biological target: rat Ccn2/Ctgf with FLAG epitope at the C terminus, expressed from AAV8 in mouse liver (rat) (UniProt Q9R1E9); test: co-IP; total protein homogenates of AAV8-Ccn2/Ctgf:FLAG- or AAV8-GFP-infected mouse livers after 6-week CCl4, 1x TBS with 0.5% Triton-100; M2 antibody-conjugated agarose; immunoblot with rabbit Slit2 antibody
# [2] = biological target: 3xFLAG tagged Ccn2/Ctgf (rat) (UniProt Q9R1E9); test: co-IP; CHO cells co-transfected with SLIT2:MYC and 3xFLAG tagged Ccn2/Ctgf or mutants; conditioned media in 1x TBS, M2 antibody-conjugated agarose 16 h; immunoblot for SLIT2 (MYC Ab in the legend)
Binder,binding [1],binding [2]
B1,binds,
B2,,binds
